Data published in US20160228502A1.
These are yes or no findings as the source states them, for the method shown. For some assays here: Binding seen in cells or lysates may run through a third protein. Some binding calls cover weakened binding; strength is not graded here. For some assays here: Tags and fused reporters may be left off the sequences shown.

By UniProt entry, the sequences of proteins in these tests, tags left out.
UniProt P04191: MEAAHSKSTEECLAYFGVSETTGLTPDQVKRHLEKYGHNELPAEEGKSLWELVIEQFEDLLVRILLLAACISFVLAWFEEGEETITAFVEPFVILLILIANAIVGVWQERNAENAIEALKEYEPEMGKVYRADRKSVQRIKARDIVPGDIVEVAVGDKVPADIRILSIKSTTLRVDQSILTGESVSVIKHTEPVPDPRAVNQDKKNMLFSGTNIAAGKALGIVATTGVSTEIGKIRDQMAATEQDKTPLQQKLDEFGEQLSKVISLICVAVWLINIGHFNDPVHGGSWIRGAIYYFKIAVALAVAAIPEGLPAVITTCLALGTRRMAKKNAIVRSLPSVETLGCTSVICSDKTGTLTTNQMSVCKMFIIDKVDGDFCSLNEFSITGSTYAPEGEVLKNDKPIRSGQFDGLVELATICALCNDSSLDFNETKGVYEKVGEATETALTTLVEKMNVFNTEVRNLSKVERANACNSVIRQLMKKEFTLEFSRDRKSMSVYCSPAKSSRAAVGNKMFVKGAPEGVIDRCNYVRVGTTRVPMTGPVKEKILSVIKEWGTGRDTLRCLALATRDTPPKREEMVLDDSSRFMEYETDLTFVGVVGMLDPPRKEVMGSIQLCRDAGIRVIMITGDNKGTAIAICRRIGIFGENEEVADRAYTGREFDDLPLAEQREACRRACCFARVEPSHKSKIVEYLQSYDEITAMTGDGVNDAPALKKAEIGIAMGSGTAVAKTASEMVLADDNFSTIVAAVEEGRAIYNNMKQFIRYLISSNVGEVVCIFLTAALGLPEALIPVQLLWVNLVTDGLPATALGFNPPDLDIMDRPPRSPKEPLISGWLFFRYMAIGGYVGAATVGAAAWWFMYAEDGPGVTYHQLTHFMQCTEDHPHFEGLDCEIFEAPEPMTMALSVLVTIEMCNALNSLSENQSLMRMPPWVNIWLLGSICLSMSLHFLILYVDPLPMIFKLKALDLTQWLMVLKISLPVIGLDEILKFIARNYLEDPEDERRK
UniProt P11716: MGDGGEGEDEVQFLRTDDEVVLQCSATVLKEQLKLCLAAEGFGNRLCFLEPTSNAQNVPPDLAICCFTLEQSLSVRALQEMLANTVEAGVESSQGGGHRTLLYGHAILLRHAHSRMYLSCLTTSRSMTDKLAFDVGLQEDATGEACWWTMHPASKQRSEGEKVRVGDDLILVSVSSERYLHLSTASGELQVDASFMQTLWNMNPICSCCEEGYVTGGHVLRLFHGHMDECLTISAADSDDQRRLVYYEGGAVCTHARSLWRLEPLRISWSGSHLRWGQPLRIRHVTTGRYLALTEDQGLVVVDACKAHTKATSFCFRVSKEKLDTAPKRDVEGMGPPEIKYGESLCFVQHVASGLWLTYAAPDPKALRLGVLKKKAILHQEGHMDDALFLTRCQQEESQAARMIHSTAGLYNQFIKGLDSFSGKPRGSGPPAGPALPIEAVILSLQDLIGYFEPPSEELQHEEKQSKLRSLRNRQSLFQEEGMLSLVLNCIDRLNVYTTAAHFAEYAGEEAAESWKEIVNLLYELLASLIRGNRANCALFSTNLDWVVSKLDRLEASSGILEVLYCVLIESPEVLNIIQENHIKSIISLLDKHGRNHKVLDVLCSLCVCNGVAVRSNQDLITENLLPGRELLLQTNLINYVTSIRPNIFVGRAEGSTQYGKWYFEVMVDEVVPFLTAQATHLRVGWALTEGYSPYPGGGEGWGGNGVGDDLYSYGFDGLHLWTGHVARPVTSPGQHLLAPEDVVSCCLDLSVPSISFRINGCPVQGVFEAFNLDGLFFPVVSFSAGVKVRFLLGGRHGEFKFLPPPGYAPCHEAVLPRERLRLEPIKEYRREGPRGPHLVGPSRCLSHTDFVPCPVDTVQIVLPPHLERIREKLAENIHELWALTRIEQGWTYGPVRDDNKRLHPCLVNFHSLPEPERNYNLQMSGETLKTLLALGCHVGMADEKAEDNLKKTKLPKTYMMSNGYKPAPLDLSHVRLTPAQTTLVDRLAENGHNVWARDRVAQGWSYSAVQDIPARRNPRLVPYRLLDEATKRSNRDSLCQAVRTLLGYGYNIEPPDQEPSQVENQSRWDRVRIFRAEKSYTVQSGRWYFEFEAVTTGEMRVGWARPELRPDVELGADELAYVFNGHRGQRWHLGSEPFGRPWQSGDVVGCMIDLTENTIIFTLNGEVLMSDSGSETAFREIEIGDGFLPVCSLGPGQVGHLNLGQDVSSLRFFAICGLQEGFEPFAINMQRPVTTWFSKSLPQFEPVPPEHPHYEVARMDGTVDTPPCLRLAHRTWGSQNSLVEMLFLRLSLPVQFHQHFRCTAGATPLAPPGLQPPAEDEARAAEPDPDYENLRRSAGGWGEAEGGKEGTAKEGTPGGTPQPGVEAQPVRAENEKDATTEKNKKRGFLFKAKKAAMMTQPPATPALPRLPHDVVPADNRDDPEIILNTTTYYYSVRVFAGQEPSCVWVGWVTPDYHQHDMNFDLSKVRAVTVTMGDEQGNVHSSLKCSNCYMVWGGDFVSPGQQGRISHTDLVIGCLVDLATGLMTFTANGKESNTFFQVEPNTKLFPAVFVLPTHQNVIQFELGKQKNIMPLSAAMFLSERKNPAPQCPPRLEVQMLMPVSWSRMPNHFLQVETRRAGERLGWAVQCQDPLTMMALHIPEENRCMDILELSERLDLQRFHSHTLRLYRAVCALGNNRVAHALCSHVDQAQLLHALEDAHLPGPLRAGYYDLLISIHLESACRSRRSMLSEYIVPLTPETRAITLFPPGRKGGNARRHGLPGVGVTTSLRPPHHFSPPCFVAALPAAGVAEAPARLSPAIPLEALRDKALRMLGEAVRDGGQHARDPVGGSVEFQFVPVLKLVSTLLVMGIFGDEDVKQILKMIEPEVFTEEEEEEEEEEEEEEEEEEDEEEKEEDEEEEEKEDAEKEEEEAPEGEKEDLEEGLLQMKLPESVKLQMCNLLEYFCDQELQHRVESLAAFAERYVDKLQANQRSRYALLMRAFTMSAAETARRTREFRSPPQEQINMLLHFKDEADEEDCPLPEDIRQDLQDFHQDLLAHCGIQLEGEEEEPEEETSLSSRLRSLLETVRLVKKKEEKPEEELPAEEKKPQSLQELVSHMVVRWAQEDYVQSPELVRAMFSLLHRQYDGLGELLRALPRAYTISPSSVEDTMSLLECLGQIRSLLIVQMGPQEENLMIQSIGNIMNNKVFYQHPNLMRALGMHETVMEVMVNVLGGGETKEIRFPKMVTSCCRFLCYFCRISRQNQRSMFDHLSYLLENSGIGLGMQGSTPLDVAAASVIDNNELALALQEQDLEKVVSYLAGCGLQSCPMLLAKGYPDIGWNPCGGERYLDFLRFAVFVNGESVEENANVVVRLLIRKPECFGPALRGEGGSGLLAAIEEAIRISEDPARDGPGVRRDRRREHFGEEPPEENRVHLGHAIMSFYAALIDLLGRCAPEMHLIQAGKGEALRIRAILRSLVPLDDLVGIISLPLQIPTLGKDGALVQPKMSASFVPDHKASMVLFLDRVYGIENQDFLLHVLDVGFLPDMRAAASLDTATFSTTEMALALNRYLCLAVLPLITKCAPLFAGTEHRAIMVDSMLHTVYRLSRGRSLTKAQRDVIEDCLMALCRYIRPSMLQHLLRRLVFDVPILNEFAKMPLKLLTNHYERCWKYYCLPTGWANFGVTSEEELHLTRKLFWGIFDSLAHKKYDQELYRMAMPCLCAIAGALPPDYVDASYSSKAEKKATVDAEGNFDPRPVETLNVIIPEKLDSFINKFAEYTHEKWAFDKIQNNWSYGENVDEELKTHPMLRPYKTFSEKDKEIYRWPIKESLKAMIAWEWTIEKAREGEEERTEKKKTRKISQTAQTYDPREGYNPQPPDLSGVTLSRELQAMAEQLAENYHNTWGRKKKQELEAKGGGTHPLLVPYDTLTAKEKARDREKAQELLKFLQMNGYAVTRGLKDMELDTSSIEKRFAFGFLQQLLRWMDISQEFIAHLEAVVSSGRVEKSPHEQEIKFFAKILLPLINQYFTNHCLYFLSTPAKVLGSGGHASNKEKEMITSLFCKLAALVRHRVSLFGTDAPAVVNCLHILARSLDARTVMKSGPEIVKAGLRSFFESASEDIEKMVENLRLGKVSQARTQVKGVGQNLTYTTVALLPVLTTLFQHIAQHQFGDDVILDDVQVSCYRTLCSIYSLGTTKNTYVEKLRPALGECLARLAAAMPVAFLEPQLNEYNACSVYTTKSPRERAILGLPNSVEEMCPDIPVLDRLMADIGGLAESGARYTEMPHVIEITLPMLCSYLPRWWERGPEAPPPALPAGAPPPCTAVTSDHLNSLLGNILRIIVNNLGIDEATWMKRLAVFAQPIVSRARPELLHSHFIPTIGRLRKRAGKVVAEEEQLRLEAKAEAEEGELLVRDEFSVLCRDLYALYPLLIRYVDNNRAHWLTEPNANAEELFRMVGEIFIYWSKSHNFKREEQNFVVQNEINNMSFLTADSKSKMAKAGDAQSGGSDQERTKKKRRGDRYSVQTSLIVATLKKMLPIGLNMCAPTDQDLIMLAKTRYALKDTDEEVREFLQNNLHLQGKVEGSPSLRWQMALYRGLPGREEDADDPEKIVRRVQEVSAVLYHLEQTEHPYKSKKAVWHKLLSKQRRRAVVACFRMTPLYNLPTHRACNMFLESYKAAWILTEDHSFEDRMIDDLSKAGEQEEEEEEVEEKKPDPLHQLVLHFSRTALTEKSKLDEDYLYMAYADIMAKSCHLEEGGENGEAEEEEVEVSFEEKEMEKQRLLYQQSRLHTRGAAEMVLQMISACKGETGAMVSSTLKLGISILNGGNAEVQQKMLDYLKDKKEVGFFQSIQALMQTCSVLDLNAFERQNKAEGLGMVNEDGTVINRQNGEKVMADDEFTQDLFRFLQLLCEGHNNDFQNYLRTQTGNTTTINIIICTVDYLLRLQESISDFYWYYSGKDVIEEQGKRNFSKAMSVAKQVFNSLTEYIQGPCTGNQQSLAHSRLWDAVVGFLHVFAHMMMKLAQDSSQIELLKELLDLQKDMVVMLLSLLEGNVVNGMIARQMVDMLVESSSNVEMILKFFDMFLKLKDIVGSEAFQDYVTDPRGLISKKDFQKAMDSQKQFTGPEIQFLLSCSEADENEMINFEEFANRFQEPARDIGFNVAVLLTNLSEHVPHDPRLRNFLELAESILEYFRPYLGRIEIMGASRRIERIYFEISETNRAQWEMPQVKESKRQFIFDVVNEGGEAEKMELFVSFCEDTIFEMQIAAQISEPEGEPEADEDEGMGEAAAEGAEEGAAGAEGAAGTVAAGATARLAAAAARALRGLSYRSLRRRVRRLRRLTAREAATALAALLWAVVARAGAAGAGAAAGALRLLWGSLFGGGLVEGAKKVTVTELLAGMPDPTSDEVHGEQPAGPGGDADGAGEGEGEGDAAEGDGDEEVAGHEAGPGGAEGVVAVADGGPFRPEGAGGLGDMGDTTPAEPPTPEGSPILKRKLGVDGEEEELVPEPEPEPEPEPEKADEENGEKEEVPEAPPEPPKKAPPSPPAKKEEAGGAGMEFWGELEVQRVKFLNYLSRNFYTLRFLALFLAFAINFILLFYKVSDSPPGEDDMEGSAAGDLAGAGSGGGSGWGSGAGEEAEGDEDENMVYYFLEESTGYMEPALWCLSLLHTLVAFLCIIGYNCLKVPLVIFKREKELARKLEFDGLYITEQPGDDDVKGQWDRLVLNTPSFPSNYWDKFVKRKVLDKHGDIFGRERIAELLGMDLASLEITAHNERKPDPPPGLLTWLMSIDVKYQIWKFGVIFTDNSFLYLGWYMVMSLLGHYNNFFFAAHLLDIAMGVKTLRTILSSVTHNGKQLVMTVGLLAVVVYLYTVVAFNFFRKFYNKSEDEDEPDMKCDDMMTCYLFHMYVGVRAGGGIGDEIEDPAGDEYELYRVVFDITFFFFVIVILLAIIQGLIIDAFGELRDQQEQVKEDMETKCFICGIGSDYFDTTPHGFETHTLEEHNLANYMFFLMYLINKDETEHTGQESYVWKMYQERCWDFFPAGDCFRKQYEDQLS

Columns and labels:
SERCA1-CFP (rabbit) = SERCA1-CFP (rabbit) (UniProt P04191); assay: AFRET in COS7 cells
[1] = biological target: Ryanodine receptor 1 (RyR1), native, rabbit skeletal muscle SR vesicles (rabbit) (UniProt P11716); assay: coIP with antibody to JPH1 from rabbit SR vesicles
[2] = biological target: Ryanodine receptor 1 (RyR1), native, rabbit skeletal muscle SR vesicles (rabbit) (UniProt P11716); assay: coIP with antibodies to JPH1 from rabbit SR vesicles
[3] = biological target: sarco(endo)plasmic reticulum Ca^2+-ATPase 1 (SERCA1) (rabbit) (UniProt P04191); assay: coIP with antibodies to SERCA1 from COS7 extracts, titration of sAnk1-FLAG
[4] = biological target: sarco(endo)plasmic reticulum Ca^2+-ATPase 1 (SERCA1) (rabbit) (UniProt P04191); assay: coIP with antibodies to SERCA1 from COS7 extracts

B1: SLN-YFP (peptide, rabbit, UniProt P42532 1-31, looked up, not shown: large carriers)
chain: MERSTRELCLNFTVVLITVILIWLLVRSYQY
SERCA1-CFP (rabbit)
  binding: binds

B2: junctophilin-1 (JPH1), native, rabbit skeletal muscle SR vesicles (protein, UniProt Q9GKY8 1-662, looked up)
chain: MTGGRFDFDDGGTYCGGWEEGKAHGHGICTGPKGQGEYSGSWSHGFEVVGGYTWPSGNTYQGYWAQGKRHGLGVETKGKWMYRGEWSHGFKGRYGVRQSLCTPARYEGTWSNGLQDGYGVETYGDGGTYQGQWAGGMRHGYGVRQSVPYGMATVIRSPLRTSLASLRSEQSNGSVLHDAAAAADTPTGTRGGFVLNFHADAELAGKKKGGLFRRGSLLGSMKLRKSESKSSISSKRSSVRSDAAMSRISSSDANSTISFGDVDCDFCPVEDHVDATTTETYMGEWKNDKRNGFGISERSNGMKYEGEWANNKRHGYGCTVFPDGSKEEGKYKNNILVRGIRKQLIPIRNTKTREKVDRAIEGAQRAAAMARTKVEIANSRTAHARAKADAADQAALAARQECDIARAVARELSPDFYQPGPDYIKQRLQEGVDAKENPEEKVPAKPPTPKESPHFYRKGTTPPGSPEASPKYSRSPQPSPPKPAKKQNPSSGARLNQDKRGVAEEQVTAIVNKPLTSKAPTKEVGAAVSQSKYSGRHHVPNPSNGELHSQYHGYYVKLHAPQHPPVDAEDDDRSSPSSSALVHKPSPNKWSPPKSVTKPVAKESKAEPKAKKSELAIPKNPASNDSCPSMEREANSGPNSVMIVLVMLLNIGLAILFVHFLT
[1]
  binding: binds
[2]
  binding: binds

B3: N-terminal FLAG-tagged sarcolipin (NF-SLN) (peptide, rabbit, UniProt P42532 1-31, looked up, not shown: small tags and cut ends)
chain: B1 chain
[3]
  binding: binds
[4]
  binding: binds
